Results are given in words; binding and its absence hold for the method and conditions named. In cells and extracts the contact can be indirect. Binding calls can cover weak binding; strength is not graded here. Sequences can lack the tags named with a protein.
Molecular target: T1, Myc-tagged SmHDAC8 (S. mansoni) (UniProt A5H660)
T1 sequence: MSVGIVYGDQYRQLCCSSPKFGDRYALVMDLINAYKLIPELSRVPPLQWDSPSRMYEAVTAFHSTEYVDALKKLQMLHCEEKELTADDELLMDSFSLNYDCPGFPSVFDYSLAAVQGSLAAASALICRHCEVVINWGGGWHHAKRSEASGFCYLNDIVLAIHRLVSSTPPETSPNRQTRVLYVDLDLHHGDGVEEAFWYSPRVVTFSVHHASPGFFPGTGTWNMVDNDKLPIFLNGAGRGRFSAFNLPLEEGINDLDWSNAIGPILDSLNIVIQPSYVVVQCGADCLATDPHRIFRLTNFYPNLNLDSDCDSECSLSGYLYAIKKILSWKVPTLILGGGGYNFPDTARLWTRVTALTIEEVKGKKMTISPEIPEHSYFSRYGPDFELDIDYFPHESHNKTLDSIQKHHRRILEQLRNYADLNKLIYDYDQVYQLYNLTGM
Test: co-IP; Myc- and HA-tagged proteins co-expressed from cRNA in X. laevis oocytes; lysis in 50 mM HEPES pH 7.4, 500 mM NaCl, 0.05% SDS, 0.5% Triton X100, 5 mM MgCl2; IP with anti-Myc or anti-HA, protein A-Sepharose, 4°C; Western blot

| binding | Substance |
| --- | --- |
| no binding | HA-tagged SmRho1.1 1-88 aa fragment (S. mansoni) (domain or fragment) |
| no binding | HA-tagged SmRho1.1 1-143 aa fragment (S. mansoni) (domain or fragment) |
| binds | HA-tagged SmRho1.1 (S. mansoni) |
| no binding | HA-tagged SmRho1.2 (S. mansoni) |

| Substance | binding |
| --- | --- |
| HA-tagged SmRho1.1 E33K (S. mansoni) | binds |
| HA-tagged SmRho1.2 K33E (S. mansoni) | no binding |

Reference: paper PMC8670706
